Among the data in the supplement of paper PMC12819154, “High-throughput peptide-centric local stability assay extends protein–ligand identification to membrane proteins, tissues and bacteria” (Nature Structural & Molecular Biology, 2025) are log2 fold change values, retold here.

The chains behind the UniProt entries cited, without tags or fusion partners. Where a name states a change or a piece, a line headed by the entry shows the natural chain unless it says otherwise.
UniProt Q5PSV9: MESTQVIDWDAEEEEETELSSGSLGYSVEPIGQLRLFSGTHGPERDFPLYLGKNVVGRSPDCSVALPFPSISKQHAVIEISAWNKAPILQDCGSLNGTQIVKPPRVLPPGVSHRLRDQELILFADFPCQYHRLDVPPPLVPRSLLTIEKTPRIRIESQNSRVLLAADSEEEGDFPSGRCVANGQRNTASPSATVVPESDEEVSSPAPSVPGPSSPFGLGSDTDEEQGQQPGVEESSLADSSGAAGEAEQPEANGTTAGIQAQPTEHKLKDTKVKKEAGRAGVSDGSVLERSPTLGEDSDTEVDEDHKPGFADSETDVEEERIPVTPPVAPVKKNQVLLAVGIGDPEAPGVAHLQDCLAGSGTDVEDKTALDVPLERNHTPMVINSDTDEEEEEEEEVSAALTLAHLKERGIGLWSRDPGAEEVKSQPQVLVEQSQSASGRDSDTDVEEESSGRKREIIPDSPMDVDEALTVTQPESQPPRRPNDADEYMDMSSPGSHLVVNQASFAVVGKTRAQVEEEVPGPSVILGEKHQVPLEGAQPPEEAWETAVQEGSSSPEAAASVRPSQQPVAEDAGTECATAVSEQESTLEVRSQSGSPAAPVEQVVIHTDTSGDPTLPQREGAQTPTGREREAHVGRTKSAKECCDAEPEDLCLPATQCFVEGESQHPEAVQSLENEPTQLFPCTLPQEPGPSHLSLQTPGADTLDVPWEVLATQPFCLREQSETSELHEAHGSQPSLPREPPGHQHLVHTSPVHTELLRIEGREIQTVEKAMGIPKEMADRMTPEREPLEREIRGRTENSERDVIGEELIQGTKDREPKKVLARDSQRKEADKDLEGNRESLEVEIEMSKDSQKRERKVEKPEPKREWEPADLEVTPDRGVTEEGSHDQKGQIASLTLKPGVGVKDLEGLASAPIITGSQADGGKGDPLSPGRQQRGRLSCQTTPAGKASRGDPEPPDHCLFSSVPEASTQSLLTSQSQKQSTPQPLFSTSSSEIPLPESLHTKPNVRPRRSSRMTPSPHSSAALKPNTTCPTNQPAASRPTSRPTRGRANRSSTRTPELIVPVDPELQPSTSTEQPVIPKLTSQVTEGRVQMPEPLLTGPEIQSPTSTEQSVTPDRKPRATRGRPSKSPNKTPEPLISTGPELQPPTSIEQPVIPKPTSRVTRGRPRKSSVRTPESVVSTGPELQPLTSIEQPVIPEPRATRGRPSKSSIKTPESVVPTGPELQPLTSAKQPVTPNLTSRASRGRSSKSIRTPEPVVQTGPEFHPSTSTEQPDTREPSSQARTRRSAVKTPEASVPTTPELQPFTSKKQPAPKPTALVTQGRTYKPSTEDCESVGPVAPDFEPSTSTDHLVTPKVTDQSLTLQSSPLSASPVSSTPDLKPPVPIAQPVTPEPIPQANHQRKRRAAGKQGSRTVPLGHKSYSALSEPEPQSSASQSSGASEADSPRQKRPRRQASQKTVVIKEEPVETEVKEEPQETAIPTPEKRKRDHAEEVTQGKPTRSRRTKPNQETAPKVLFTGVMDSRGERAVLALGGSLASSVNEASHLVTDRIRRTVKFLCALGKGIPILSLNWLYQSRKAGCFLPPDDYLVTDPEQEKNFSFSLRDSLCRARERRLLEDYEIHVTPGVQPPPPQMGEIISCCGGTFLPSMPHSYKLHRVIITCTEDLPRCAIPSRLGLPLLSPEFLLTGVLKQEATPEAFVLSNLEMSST
UniProt Q60664: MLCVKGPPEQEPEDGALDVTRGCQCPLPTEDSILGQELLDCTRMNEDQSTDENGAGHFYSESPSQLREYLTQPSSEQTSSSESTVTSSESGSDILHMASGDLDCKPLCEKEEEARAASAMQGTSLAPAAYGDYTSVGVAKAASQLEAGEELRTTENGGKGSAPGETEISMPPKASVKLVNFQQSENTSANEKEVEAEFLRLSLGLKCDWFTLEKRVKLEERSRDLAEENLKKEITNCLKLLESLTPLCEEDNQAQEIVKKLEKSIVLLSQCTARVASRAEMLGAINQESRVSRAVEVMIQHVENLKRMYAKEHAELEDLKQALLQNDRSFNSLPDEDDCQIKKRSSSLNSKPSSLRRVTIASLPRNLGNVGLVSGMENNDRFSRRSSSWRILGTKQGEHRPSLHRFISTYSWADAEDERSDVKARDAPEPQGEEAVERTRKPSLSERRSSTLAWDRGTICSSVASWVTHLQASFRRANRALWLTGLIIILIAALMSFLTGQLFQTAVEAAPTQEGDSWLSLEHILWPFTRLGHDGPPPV
UniProt Q5SUF2: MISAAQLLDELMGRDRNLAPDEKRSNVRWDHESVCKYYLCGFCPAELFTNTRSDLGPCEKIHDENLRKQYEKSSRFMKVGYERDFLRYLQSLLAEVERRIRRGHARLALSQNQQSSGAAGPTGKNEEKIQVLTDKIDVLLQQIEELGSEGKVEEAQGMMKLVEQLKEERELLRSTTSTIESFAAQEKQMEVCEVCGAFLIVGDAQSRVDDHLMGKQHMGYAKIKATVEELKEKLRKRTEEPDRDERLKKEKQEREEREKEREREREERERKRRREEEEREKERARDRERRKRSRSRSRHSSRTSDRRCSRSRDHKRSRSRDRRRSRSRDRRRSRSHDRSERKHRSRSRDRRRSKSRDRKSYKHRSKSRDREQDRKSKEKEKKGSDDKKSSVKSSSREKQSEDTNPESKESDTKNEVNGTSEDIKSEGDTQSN
UniProt Q60749, whole entry: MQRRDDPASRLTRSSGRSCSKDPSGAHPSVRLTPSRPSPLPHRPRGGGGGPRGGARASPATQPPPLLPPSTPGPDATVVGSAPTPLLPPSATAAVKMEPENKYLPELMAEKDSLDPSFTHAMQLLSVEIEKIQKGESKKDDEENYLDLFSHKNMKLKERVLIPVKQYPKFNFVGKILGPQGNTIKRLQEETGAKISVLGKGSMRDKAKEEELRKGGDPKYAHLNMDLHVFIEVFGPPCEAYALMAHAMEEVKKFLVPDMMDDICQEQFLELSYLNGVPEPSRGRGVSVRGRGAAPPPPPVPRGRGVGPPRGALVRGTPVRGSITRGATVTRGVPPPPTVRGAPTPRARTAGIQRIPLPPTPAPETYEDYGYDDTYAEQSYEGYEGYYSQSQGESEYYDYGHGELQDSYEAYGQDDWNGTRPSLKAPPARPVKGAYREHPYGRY
UniProt Q60596, whole entry: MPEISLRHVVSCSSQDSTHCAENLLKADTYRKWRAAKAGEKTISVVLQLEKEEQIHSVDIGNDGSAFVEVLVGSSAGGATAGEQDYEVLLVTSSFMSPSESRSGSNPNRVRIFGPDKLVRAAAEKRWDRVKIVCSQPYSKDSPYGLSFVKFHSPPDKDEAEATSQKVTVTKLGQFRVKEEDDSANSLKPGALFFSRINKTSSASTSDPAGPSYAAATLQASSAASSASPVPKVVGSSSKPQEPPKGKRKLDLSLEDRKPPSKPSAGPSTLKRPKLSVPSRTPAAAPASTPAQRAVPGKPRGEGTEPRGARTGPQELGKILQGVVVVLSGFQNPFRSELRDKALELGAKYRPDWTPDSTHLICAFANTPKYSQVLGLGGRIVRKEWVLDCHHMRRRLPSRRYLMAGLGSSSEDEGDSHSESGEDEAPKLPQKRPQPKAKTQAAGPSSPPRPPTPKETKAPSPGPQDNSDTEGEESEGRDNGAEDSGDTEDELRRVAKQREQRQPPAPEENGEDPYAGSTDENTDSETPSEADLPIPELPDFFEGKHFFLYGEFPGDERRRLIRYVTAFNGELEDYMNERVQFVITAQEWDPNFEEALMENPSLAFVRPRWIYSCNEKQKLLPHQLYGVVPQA
UniProt Q5NCC3: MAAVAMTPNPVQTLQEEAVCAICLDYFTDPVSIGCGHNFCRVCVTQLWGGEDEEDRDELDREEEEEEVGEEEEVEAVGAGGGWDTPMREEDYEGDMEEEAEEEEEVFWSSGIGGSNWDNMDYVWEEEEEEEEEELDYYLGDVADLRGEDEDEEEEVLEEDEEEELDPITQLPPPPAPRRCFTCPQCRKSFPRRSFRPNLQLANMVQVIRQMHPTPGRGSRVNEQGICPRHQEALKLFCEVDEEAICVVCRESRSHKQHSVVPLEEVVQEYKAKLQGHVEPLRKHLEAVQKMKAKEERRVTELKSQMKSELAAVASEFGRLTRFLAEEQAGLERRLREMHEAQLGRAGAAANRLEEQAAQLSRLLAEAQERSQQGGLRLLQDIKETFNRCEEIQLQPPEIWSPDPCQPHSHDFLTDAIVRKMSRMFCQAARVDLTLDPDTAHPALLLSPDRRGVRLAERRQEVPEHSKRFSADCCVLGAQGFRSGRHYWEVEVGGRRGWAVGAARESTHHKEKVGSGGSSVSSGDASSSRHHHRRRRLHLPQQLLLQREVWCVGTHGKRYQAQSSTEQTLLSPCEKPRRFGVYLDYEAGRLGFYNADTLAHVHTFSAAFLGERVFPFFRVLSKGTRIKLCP
UniProt Q5SQX6: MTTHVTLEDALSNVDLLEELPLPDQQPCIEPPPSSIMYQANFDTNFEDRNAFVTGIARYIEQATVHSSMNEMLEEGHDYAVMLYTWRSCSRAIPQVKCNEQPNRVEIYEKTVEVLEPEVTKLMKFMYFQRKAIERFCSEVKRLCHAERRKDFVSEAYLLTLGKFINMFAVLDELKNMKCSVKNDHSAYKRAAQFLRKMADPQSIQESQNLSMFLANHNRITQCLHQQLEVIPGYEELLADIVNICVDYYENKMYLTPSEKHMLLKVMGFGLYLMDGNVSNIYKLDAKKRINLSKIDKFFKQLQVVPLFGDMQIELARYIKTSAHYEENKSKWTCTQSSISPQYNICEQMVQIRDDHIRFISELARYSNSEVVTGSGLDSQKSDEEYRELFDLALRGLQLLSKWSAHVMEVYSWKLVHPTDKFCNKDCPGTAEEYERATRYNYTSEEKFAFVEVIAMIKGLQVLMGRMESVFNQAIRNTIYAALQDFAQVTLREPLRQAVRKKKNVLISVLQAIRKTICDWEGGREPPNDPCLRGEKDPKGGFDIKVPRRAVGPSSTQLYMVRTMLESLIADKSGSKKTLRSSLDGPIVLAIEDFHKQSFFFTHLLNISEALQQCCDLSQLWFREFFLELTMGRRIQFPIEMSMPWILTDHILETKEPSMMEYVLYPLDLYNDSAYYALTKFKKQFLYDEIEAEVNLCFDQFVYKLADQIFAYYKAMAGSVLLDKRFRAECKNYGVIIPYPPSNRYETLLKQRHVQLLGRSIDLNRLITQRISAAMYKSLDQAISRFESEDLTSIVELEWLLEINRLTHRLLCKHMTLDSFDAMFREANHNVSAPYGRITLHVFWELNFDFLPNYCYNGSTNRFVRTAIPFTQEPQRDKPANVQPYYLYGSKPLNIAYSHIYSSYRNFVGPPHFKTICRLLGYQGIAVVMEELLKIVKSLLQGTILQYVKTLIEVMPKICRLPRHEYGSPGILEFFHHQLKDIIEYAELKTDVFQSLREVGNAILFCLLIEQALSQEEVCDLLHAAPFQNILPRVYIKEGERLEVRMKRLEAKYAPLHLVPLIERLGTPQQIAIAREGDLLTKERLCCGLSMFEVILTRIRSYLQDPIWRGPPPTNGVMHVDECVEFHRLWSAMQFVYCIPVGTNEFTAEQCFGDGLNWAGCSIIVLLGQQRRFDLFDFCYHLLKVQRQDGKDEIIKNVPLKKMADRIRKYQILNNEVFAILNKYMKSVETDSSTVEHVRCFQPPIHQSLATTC
UniProt Q5NCF2, whole entry: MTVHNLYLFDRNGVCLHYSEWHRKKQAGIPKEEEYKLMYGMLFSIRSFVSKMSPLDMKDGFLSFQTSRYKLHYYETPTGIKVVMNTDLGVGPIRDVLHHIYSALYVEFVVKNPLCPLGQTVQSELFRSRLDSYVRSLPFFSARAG
UniProt Q61160: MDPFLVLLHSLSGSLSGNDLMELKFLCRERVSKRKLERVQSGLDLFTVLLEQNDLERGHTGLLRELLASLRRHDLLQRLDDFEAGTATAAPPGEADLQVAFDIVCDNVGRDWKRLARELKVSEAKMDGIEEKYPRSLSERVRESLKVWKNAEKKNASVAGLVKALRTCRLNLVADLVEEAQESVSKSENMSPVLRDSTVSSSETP
UniProt Q61179: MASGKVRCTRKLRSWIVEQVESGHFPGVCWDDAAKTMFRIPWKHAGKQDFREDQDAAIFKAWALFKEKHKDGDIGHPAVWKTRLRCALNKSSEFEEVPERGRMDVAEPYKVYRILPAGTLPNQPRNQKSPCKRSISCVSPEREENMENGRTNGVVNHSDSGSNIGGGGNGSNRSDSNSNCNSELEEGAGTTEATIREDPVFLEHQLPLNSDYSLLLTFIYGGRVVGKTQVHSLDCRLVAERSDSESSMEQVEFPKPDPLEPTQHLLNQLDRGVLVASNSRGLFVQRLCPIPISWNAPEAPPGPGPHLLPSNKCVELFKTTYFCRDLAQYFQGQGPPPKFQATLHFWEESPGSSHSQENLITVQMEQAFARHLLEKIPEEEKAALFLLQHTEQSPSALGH

The other results are listed elsewhere or left out. Most values lie at the level of the controls, where differences are scatter.

Compound in this experiment: CN[C@@H]1C[C@H]2O[C@@](C)([C@@H]1OC)n1c3ccccc3c3c4c(c5c6ccccc6n2c5c31)C(=O)NC4 [staurosporine]
Briefly: log2 fold change of tryptic peptide abundance, ligand vs vehicle (limited proteolysis) (log2 ratio); higher = more trypsin-susceptible (destabilized). Particulars: ligand concentration: 20 uM; sample: mouse liver crude lysate; replicate design: treated separately.
Consider “UniProt Q5PSV9 (peptide sequence: EPPGHQHLVHTSPVHTELLR, peptide start residue: 739)”, for which the log2 fold change is -0.682.

As for “UniProt Q61122 (peptide sequence: DYPHSAFTLEK, peptide start residue: 465)”, the log2 fold change is 0.233.

“UniProt Q60974 (peptide sequence: VYHENIK, peptide start residue: 274)”: the log2 fold change is -0.305.

As to “UniProt Q60875 (peptide sequence: QHTLLQEELRR, peptide start residue: 809)”, the log2 fold change is -0.311.

Turning to “UniProt Q5U4C9 (peptide sequence: VTESTGAITSISK, peptide start residue: 551)”, the log2 fold change was -0.567.

Turning to “UniProt Q5SSW2 (peptide sequence: NFDDAFLPVLKPHLER, peptide start residue: 1351)”, the log2 fold change turned out to be 0.903.

Turning to “UniProt Q60664 (peptide sequence: AVEVMIQHVENLKR, peptide start residue: 294)”, the log2 fold change is -0.292.

“UniProt Q5SX40 (peptide sequence: LQTESGEYSR, peptide start residue: 1287)”: the log2 fold change was found to be 0.394.

For “UniProt Q61097 (peptide sequence: RPWRGPISR, peptide start residue: 536)”, the log2 fold change was -0.103.

Take “UniProt Q60649 (peptide sequence: EDDFNNRLNHR, peptide start residue: 221)”: the log2 fold change was -0.399.

For the target “UniProt Q5SUF2 (peptide sequence: ESDTKNEVNGTSEDIK, peptide start residue: 409)”, the log2 fold change stood at 0.442.

As to “UniProt Q60749 (peptide sequence: VLIPVKQYPKFNFVGK, peptide start residue: 160)”, the log2 fold change was 0.833.

As to “UniProt Q60596 (peptide sequence: HFFLYGEFPGDER, peptide start residue: 545)”, the log2 fold change amounted to 0.546.

In the case of “UniProt Q5RJG1 (peptide sequence: SLPEWLSDR, peptide start residue: 19)”, the log2 fold change was -0.2.

As to “UniProt Q5NCC3 (peptide sequence: LEEQAAQLSR, peptide start residue: 353)”, the log2 fold change worked out at 0.224.

Take “UniProt Q60597 (peptide sequence: SSPYPTDVAR, peptide start residue: 457)”: the log2 fold change was -0.205.

“UniProt Q5FWH6 (peptide sequence: NTLWQELPAVR, peptide start residue: 401)”: the log2 fold change was found to be 0.317.

As for “UniProt Q5SUE8 (peptide sequence: EAAALGDIR, peptide start residue: 16)”, the log2 fold change came to 0.141.

For “UniProt Q5SQX6 (peptide sequence: TMLESLIADKSGSKK, peptide start residue: 564)”, the log2 fold change was -0.118.

Consider “UniProt Q5U3K5 (peptide sequence: SLLPSDPMPSK, peptide start residue: 467)”, for which the log2 fold change was found to be 0.184.

Regarding “UniProt Q5NCF2 (peptide sequence: SLPFFSAR, peptide start residue: 136)”, the log2 fold change is -0.41.

Take “UniProt Q5Y5T2 (peptide sequence: SDDPACGAKPDASMVGGHP, peptide start residue: 362)”: the log2 fold change is -0.122.

As to “UniProt Q60634 (peptide sequence: LLAELPASVHALTGVDLSK, peptide start residue: 398)”, the log2 fold change is -0.229.

In the case of “UniProt Q60953 (peptide sequence: HFLSFLTTMHRPILACSR, peptide start residue: 670)”, the log2 fold change was 0.317.

In the case of “UniProt Q5SUC9 (peptide sequence: LVGLTGTKEEIDGVAR, peptide start residue: 207)”, the log2 fold change is -0.309.

As for “UniProt Q61035 (peptide sequence: IFSIVEQR, peptide start residue: 389)”, the log2 fold change was -0.583.

For “UniProt Q61160 (peptide sequence: MDGIEEKYPR, peptide start residue: 126)”, the log2 fold change worked out at 0.241.

In the case of “UniProt Q5DU57 (peptide sequence: IFFLFDHQLVSCKK, peptide start residue: 479)”, the log2 fold change was -0.27.

“UniProt Q5SWD9 (peptide sequence: VVLSGHPFK, peptide start residue: 696)”: the log2 fold change is 0.176.

Turning to “UniProt Q5SV77 (peptide sequence: MLKCDEHIQK, peptide start residue: 540)”, the log2 fold change stood at 0.304.

Turning to “UniProt Q60936 (peptide sequence: IVSTLCKVR, peptide start residue: 260)”, the log2 fold change stood at 0.365.

“UniProt Q61179 (peptide sequence: MDVAEPYKVYR, peptide start residue: 103)”: the log2 fold change was -0.405.

With “UniProt Q5UAK0 (peptide sequence: YNLHPGVTDYMDR, peptide start residue: 349)”, the log2 fold change was found to be 0.269.

With “UniProt Q61070 (peptide sequence: TFLQDLGR, peptide start residue: 7)”, the log2 fold change is -0.353.

Turning to “UniProt Q5PRF0 (peptide sequence: YSSVFKR, peptide start residue: 1984)”, the log2 fold change was -0.343.
